The test system of one data set is His-HAT1 (Homo sapiens). Briefly: ELONA. As to conditions: recombinant protein, protein details: 6xHis (pQE30), single-stranded DNA.
The test system of data set [1] is His-HAT1, denatured (apta-Western) (Homo sapiens). Briefly: apta-Western blot. The settings on record: denatured HAT1, 50 nM aptamer; recombinant protein; protein details: 6xHis (pQE30); label: biotin (ELONA Fig 4), digoxigenin (Fig 2); single-stranded DNA.
Setting [2] is: digoxigenin label, 40 nM, label: digoxigenin, letters put together from the description.
[3] abbreviates: digoxigenin label, 40 nM, label: biotin (ELONA Fig 4), digoxigenin (Fig 2).

The results in this text go back to publication PMC9818519.

The exact form of at least one protein or probe is not confirmed. For some of these results: A weaker result is weaker than the reference pair of the same experiment.

With “GTTGCTCGTATTTAGGGCACAGGCATGAAGAGCCAACCCACCCGCCCGCCCCCCCCTCGACACCAGTCTTCATCCGC [apHAT63R (63R)]”, the binding result with His-HAT1 (Homo sapiens) (setting [2]) was “binds”.
For “GTTGCTCGTATTTAGGGCGGGGGGGCGGGGGAGGAGGTGGCGGGAATATCCATTGTCTACACCAGTCTTCATCCGC [apHAT610 (610R)]”, the binding result (in data set [1]; with His-HAT1 (Homo sapiens) (setting [3])) was “binds” in each case.
In the case of “GGGCGGGGGGGCGGGGGAGGAGGTGGCGGGAATATCCATTGTCTACACCAGTCTTCATCCGC [apHAT610T]”, the binding result in the data set with His-HAT1 (Homo sapiens) (40 nM aptamer, 1 mM MgCl2, label: biotin) is “binds more weakly”.
For the sequence “GCGGATGAAGACTGGTGTCGAGGGGGGGGCGGGCGGGTGGGTTGGCTCTTCATGCCTGTGCCCTAAATACGAGCAAC [apHAT63 (63F)]”, the binding result (in data set [1]; with His-HAT1 (Homo sapiens) (setting [3])) was “binds” each time.
With “GCGGATGAAGACTGGTGTAGACAATGGATATTCCCGCCACCTCCTCCCCCGCCCCCCCGCCCTAAATACGAGCAAC [apHAT610F (610F)]”, the binding result in the data set on His-HAT1 (Homo sapiens) (setting [2]) was “binds”.
